Measured values published in PubChem BioAssay AID1688 (National Center for Advancing Translational Sciences (NCATS), 2009).
The whole screen tested about 220,000 compounds, of which about 2,400 (1.1%) were called active. This list was built around the results that the source calls inconclusive (neither active nor inactive); the mix of calls is not that of the screen. The call rests on the fitted dose curve; in most records, active means well fitted inhibition curve with a large enough effect; inconclusive means small, poorly fitted or top-dose-only effect, or effect the other way; inactive means no such curve, though single readings can be large or run the other way. Where the call is inconclusive, the potency comes from a doubtful curve fit.

Experiment: qHTS Multiplex Assay to Identify Dual Action Probes in a Cell Model of Huntington: Aggregate Formation (GFP); further: nearly all actives have a fitted effect of over 60% in size
Conditions: PC12 HttQ103-GFP aggregates, Acumen cytometry, 40 h; activity change, negative = inhibition: at 46.1 µM (top of the series) unless noted
In short: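 Aggregates are detected as GFP objects 1–25 µm with signal 6 STDEV over background in lysates of induced PC12 cells. These carry Huntingtin exon 1 with 103 glutamines fused to GFP under an ecdysone promoter; compounds titrated.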
On the % scale 0 is the no-effect control and ±100 the full control effect; potency means the concentration at half of the fitted maximal effect.

| Compound | Potency | activity change, negative = inhibition |
| --- | --- | --- |
| Cc1ccc(C(C(=O)NC2CCCCC2)N2CCOCC2)cc1 (configuration not stated) | inconclusive: 2.82 µM [activator, partial curve] |  |
| CC(C)(C)c1ccc(OCC(=O)N2CCCCCC2)c(Br)c1 | inconclusive: 0.355 µM [activator, full curve, poor fit] |  |
| Fc1ccc(-c2nnc(CN3CCN(c4ncc(C(F)(F)F)cc4Cl)CC3)o2)cc1 | active: 12.6 µM |  |
| CC(=O)c1ccc(NS(=O)(=O)c2ccc(C)cc2)cc1 |  | inactive: 4.56% |
| COc1cc(NC(=O)c2ccc(COc3ccccc3Br)o2)cc(OC)c1OC | inconclusive: 35.5 µM [inhibitor, single point] |  |
| CC(NCc1cccs1)c1ccccc1 (configuration not stated) | inconclusive: 5.62 µM [inhibitor, single point] |  |
| CCCc1ccc(C2C3=C(CC(C)(C)CC3=O)NC3=C2C(=O)c2ccccc23)cc1 (configuration not stated) | inconclusive: 35.5 µM [inhibitor, single point] |  |
| Nc1nc(CSC(=S)N2CCCCC2)nc(Nc2ccccc2)n1 | inconclusive: 35.5 µM [inhibitor, single point] |  |
| CCOc1ccc(C(C)=O)cc1CSC(=N)N | inconclusive: 2.51 µM [activator, partial curve] |  |
| O=C(CCCCCn1c(=S)[nH]c2cc3c(cc2c1=O)OCO3)N1CCN(C2CCCCC2)CC1 | inconclusive: 35.5 µM [activator, single point] |  |
| COc1ccccc1NC(=O)CCC(=O)OCc1cccc([N+](=O)[O-])c1 |  | inactive: 25.4% |
| C/C(=N\NC(=O)c1ccc(Cl)cc1)c1cccc(NC(=O)c2cccnc2)c1 | inconclusive: 22.4 µM [inhibitor, single point] |  |
| CC(=O)Nc1ccc(N2CCOCC2)c(C(=O)Nc2cccc(C)c2)c1 | inconclusive: 12.6 µM [inhibitor, partial curve] |  |
| O=C1OC(c2ccccc2)=C/C1=C/N1CCCCC1 | inconclusive: 20 µM [activator, partial curve, poor fit] |  |
| COc1ccc(N2CCN(C(=O)CSc3nnc4c(C)cc5cc(C)ccc5n34)CC2)cc1 | inconclusive: 35.5 µM [inhibitor, single point] |  |
| Cc1cc(N/N=C/c2ccc(O)cc2O)nc(-c2ccccc2O)n1 | inconclusive: 15.8 µM [inhibitor, single point] |  |
| Nc1ncccc1OCc1ccc(Br)cc1 | inconclusive: 22.4 µM [inhibitor, single point] |  |
| CC(C)Cc1nnc(NC(=O)CN2C(=O)c3ccccc3C2=O)s1 | inconclusive: 0.355 µM [activator, full curve, poor fit] |  |
| COc1ccc2ccc3c(c2c1)N=CC1(O3)N(C)c2ccccc2C1(C)C (configuration not stated) | inconclusive: 35.5 µM [inhibitor, single point] |  |
| O=C(NCC1CCCCC1)c1cc([N+](=O)[O-])ccc1N1CCOCC1 |  | inactive: 13.5% |
| Cc1ccnc(SCC(=O)c2ccc(Br)cc2)c1C#N |  | inactive: 2.53% |

| Compound | Potency | activity change, negative = inhibition |
| --- | --- | --- |
| CCOC(=O)c1ccccc1NC(=O)c1c(F)c(F)c(F)c(F)c1F | inconclusive: 0.0891 µM [inhibitor, partial curve, poor fit] |  |
| O=C(N/N=C/c1cc(Cl)cc([N+](=O)[O-])c1O)NC12CC3CC(CC(C3)C1)C2 | inconclusive: 22.4 µM [inhibitor, partial curve] |  |
| OC12CCCCC1C(c1ccc3c(c1)OCO3)N(Cc1cccc(F)c1)CC2 (configuration not stated) | inconclusive: 35.5 µM [activator, partial curve] |  |
| Cc1ccc(N(C(=O)Cn2nnc3ccccc32)C(C(=O)NC2CCCCC2)c2cn(C)nc2C)cc1 (configuration not stated) | inconclusive: 35.5 µM [activator, single point] |  |
| Cc1cc(C)cc(Nc2cc(=O)n(C3CCCCC3)c(=O)[nH]2)c1 | inconclusive: 22.4 µM [inhibitor, single point] |  |
| NC(=O)N1CCCC1C(=O)Nc1ccc(Cl)c(Cl)c1 (configuration not stated) | inconclusive: 15.8 µM [inhibitor, single point] |  |
| O=C(COC(=O)CCSc1ccc(Cl)cc1)NCCc1ccccc1 | inconclusive: 3.16 µM [inhibitor, single point] |  |
| O=C(OC(C(=O)NCC1CCCO1)c1ccc(F)cc1)c1ccco1 (configuration not stated) | inconclusive: 0.794 µM [activator, partial curve] |  |
| Cc1ccc(C(=O)NC(=C(Cl)Cl)S(=O)(=O)c2ccc(C)cc2)cc1 | inconclusive: 3.98 µM [activator, partial curve, poor fit] |  |
| c1ccc(COc2cccc(CN3CCN(c4ccccn4)CC3)c2)cc1 | inconclusive: 2.24 µM [inhibitor, full curve] |  |
| CN(C(=O)COC(=O)c1ccc2c(=O)n3c(nc2c1)CCC3)c1ccccc1 | inconclusive: 35.5 µM [activator, single point] |  |
| CCOc1ccc(CN2CCN(S(=O)(=O)c3ccc(NC(C)=O)cc3)CC2)cc1 | inconclusive: 11.2 µM [inhibitor, single point] |  |
| O=C(NNC(=O)c1ccc(O)cc1O)c1ccc(Cl)cc1 | inconclusive: 12.6 µM [inhibitor, single point] |  |
| C=C(C)Cn1c(SCCN2CCOCC2)nc2c1c(=O)[nH]c(=O)n2C | inconclusive: 0.562 µM [activator, full curve, poor fit] |  |
| Cc1nn(-c2ccccc2)c(N2CCCC2)c1/C=N/NC(=O)c1ccccc1O | inconclusive: 11.2 µM [inhibitor, single point] |  |
| O=[N+]([O-])c1cccc(-c2ccc(/C=N/NC(=S)Nc3cccc(F)c3)o2)c1 |  | inactive: 34.6% [at 9.22 µM] |
| CCOC(=O)CSc1nc2sc(C(=O)O)c(C)c2c(=O)[nH]1 |  | inactive: -11.8% |
| CC(C)(C)Cc1nc(-c2ccccn2)no1 | inconclusive: 1.58 µM [activator, partial curve] |  |
| O=C(NN=C1CCC(c2ccccc2)CC1)c1cc2c(s1)CCCC2 (configuration not stated) |  | inactive: -7.97% |
| O=C(Cc1cccs1)NCCSc1c(-c2ccc(Cl)cc2)[nH]c2ccccc12 | active: 22.4 µM |  |
| CCCCC[n+]1cccc2c3ccccc3ccc21 | active: 2.51 µM |  |

Whole records from above.
`Cc1ccc(C(=O)NC(=C(Cl)Cl)S(=O)(=O)c2ccc(C)cc2)cc1` as listed: Potency: inconclusive: 3.98 µM [activator, partial curve, poor fit]
`CC(C)(C)c1ccc(OCC(=O)N2CCCCCC2)c(Br)c1` as listed: Potency: inconclusive: 0.355 µM [activator, full curve, poor fit]
